Some results were stated once for a whole list of compounds, not compound by compound.
Test system: cells
Experiment: DNA content / cell cycle population analysis for apoptotic cells (FIG. 1, FIG. 2)
Format: cell-based
Details: after exposure to compound, depending on the dose

Row | Structure (SMILES) | apoptotic cells (population of cells with DNA content less than 2N)
1 | CO[C@H]1CC[C@]2(CC1)CN=Cc1cc3cnc(Nc4ccc(N5CCN(C)CC5)cn4)nc3n12 [Compound 12, (1R,4R)-4-methoxy-N-(5-(4-methylpiperazin-1-yl)pyridin-2-yl)-8′H-spiro[cyclohexane-1,9′-pyrazino[1′,2′:1,5]pyrrolo[2,3-d]pyrimidin]-2′-amine] | Greater than 70%
2 | CO[C@H]1CC[C@@]2(CC1)CN=Cc1cc3cnc(Nc4ccc(N5CCN(C)CC5)cn4)nc3n12 [Compound 13, (1S,4S)-4-methoxy-N-(5-(4-methylpiperazin-1-yl)pyridin-2-yl)-8′H-spiro[cyclohexane-1,9′-pyrazino[1′,2′:1,5]pyrrolo[2,3-d]pyrimidin]-2′-amine] | Greater than 70%

From US10618905B2, “Pyrimidine-based compounds for the treatment of cancer” (G1 Therapeutics, Inc., priority 2016, dated 2020)
